Assay results: US9029095B2, “Method and kits for determining platelet susceptibility to activation in a patient” (Institut National de la Sante et de la Recherche Medicale …, priority 2010, dated 2015)

Tested on: GPVI dimerization on platelets
Experiment: Effect of agonists and inhibitors on 9E18 binding to platelets (GPVI dimerization), flow cytometry
Format: cell-based, human

## CN[C@@H]1C[C@H]2O[C@@](C)([C@@H]1OC)n1c3ccccc3c3c4c(c5c6ccccc6n2c5c31)C(=O)NC4 [staurosporine]
  inhibition of 9E18 binding to activated platelets: more than 2 fold
